Experimental data from patent US12564591B2, “HCK as a therapeutic target in MYD88 mutated diseases” (Dana-Farber Cancer Institute, Inc., priority 2019, dated 2026).
At least one compound was matched to its structure with a doubt left.

What was measured:
[1] = system: primary MYD88 mutated bone marrow derived CD19-positive lymphoplasmacytic cells (LPCs) from WM patients; test: Apoptosis of primary WM patient lymphoplasmacytic cells; format: cell-based, human
Protocol: The anti-tumor activity of Compound (I) was also assessed using primary MYD88 mutated bone marrow derived CD19-positive lymphoplasmacytic cells (LPCs) from WM patients, and compared effects against healthy donor CD19+ B-cells.

[2] = system: Waldenstrom's macroglobulinemia (WM); conditions: previously treated WM patients; cited from earlier work
[3] = system: HCK phosphorylation at Thr^209; conditions: MYD88 mutated WM and ABC DLBCL cells

C=CC(=O)N1CCC[C@@H](n2nc(-c3ccc(Oc4ccccc4)cc3)c3c(N)ncnc32)C1 [ibrutinib, reference compound]
apoptotic effect [1]: modest apoptotic effect | responses [2]: 91% | inhibition of HCK phosphorylation [3]: modestly inhibited
